Test results taken from publication PMC5078065.
These are yes or no findings as the source states them, for the method shown. Binding seen in cells or lysates may run through a third protein. Some results given as binding are weak or reduced against the parent protein; the word gives no strength.

Amino acid sequences for entries named in this document (tags omitted).
UniProt P07355: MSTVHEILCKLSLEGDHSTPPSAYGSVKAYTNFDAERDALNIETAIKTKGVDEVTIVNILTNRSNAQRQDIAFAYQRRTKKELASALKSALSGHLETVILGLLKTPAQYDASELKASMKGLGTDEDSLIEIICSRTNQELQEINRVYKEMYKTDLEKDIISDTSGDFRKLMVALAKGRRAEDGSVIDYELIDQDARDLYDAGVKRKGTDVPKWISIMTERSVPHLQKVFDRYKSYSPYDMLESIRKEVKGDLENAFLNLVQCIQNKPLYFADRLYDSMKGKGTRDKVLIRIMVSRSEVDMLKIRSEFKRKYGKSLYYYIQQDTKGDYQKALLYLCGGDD

Target: T1, ubiquitin associated protein 2 (human) (UniProt Q5T6F2)
T1 sequence: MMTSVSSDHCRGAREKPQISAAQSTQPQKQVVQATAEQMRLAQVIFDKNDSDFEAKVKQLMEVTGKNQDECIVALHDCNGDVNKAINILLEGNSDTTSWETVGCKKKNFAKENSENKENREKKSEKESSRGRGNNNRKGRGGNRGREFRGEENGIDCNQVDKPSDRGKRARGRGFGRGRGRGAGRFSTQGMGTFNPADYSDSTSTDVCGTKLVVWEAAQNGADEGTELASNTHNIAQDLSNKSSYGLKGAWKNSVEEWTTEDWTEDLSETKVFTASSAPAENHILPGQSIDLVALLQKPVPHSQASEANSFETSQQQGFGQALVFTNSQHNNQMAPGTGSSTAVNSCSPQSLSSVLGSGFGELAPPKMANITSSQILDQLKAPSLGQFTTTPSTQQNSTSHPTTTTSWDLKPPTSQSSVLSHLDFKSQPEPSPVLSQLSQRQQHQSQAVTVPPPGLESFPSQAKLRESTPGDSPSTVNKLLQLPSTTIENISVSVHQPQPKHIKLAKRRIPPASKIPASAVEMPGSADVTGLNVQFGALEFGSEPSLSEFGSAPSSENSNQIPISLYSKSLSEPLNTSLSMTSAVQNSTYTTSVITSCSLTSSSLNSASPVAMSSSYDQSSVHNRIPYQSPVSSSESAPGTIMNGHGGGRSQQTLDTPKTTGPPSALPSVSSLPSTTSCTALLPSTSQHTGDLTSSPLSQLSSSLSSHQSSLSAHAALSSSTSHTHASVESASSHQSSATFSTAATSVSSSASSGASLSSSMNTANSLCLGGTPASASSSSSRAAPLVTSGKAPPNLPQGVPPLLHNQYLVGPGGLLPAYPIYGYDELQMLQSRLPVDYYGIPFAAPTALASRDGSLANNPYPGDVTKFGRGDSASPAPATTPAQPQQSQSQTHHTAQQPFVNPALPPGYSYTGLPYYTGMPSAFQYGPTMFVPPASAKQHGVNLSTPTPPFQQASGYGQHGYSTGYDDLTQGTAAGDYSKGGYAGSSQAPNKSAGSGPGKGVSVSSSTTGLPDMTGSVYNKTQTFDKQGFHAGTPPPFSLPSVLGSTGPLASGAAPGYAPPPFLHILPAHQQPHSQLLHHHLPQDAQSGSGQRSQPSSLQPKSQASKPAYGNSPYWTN
Assay: co-IP; reciprocal co-IP in PLC/PRF/5 cells, western blot

## Annexin A2 (from UniProt P07355 1-339)
  binding: binds
